This test deals with P388 leukemia ip, CD2F1 mice, survival T/C. Nature of the test: NCI In Vivo Anticancer Drug Screen. Data for tumor model P388 Leukemia (intraperitoneal) in CD2F1 (CDF1) mice. The following applies: T/C endpoint: median survival time, higher T/C = longer survival.
Setting [1] is: dose: 240.0 mg/kg/injection, schedule: Q01DX005 (ip), vehicle: saline with Tween-80.
[2] abbreviates: dose: 200.0 mg/kg/injection, schedule: Q01DX005 (ip), vehicle: saline.
The mark [3] stands for this setting: dose: 400.0 mg/kg/injection, schedule: Q04DX002 (ip), vehicle: Klucel (hydroxypropylcellulose) (HPC).
[4] abbreviates: dose: 200.0 mg/kg/injection, schedule: Q01DX009 (ip), vehicle: saline with Tween-80.
Where [5] appears, read: dose: 400.0 mg/kg/injection, schedule: Q01DX009 (ip), vehicle: saline with Tween-80.
The mark [6] stands for this setting: dose: 200.0 mg/kg/injection, schedule: Q01DX009 (ip), vehicle: Klucel (hydroxypropylcellulose) (HPC).
[7] abbreviates: dose: 6.25 mg/kg/injection, schedule: Q01DX009 (ip), vehicle: Klucel (hydroxypropylcellulose) (HPC).
Where [8] appears, read: dose: 25.0 mg/kg/injection, schedule: Q01DX009 (ip), vehicle: Klucel (hydroxypropylcellulose) (HPC).
Setting [9] is: dose: 50.0 mg/kg/injection, schedule: Q01DX009 (ip), vehicle: Klucel (hydroxypropylcellulose) (HPC).
Setting [10] is: dose: 50.0 mg/kg/injection, schedule: Q01DX009 (ip), vehicle: saline.
Where [11] appears, read: dose: 240.0 mg/kg/injection, schedule: Q01DX005 (ip), vehicle: saline.
The mark [12] stands for this setting: dose: 200.0 mg/kg/injection, schedule: Q01DX009 (ip), vehicle: saline.
Setting [13] is: dose: 200.0 mg/kg/injection, schedule: Q04DX003 (ip), vehicle: saline.

The list is a part of this screen's results and no random one: it is rich in T/C values a quarter to a half above the control, in often repeated tests (any T/C) and in doses without a T/C. Further doses and runs are listed elsewhere. T/C: endpoint of the treated group in % of that of the vehicle group. Some entries give survivors of the animals treated and no T/C: the source files T/C as zero there, which appears to mark a toxic dose or a test without result, not a measured value. Some survivor counts are full or nearly so, which does not show that the dose was tolerated: the source hardly ever lists a survival T/C far under the control, and the zero likely stands for such cases as well. Survivors were counted at the toxicity check, usually on the fifth day, unless a day is given; later deaths do not show. Schedules are NCI's codes, read here as Q, the interval in days (D) or hours (H), X, the number of doses. Some doses were run more than once; the values are given in rising order. For survival time, the PubChem record calls one and a half times the control and up active, and a quarter to a half above the control has no call in these data; cut-offs in other NCI protocols can differ. Some T/C values carry the count of animals alive at the toxicity check (mostly the fifth day); without a count, all were alive then.

In the case of `CC(C)SCNc1ncnc2c1ncn2C1OC(CO)C(O)C1O` (centres undefined), the survivor count is 0 of 6 (dose: 200.0 mg/kg/injection, schedule: Q04DX002 (ip), vehicle: saline with Tween-80) and 0 of 6 (dose: 400.0 mg/kg/injection, schedule: Q04DX002 (ip), vehicle: saline with Tween-80).
For the molecule `COc1ccc2c(c1)CC1c3c(cc4c(c3-2)OCO4)CCN1C` (centres undefined), the survivor count (dose: 240.0 mg/kg/injection, schedule: Q01DX005 (ip), vehicle: Klucel (hydroxypropylcellulose) (HPC)) is 0 of 6.
As for `CC[C@@]1(O)C(=O)OCc2c1cc1n(c2=O)Cc2cc3cc(O)ccc3nc2-1`, under “dose: 0.39 mg/kg/injection, schedule: Q04DX003 (ip), vehicle: other”, the T/C was 142 % of control. Further, the survivor count by setting is: (dose: 6.25 mg/kg/injection, schedule: Q04DX003 (ip), vehicle: other) 6 of 6; (dose: 8.0 mg/kg/injection, schedule: Q04DX003 (ip), vehicle: other) 3 of 6; (dose: 12.5 mg/kg/injection, schedule: Q04DX003 (ip), vehicle: other) 5 of 6.
As for `NCCn1[nH]c(=O)c2ncccc2c1=O`, the survivor count under setting [1] was 2 of 6.
Still for that read-out and setting: for `Cc1cc(C)c2c(c1)CC(C)(C)C(=O)OC2=O` the value was 0 of 6.
In the case of `CC[N+](C)(CC)CCOc1ccc(OCC[N+](C)(CC)CC)c2c1C(=O)c1ccccc1C2=O`, the survivor count is 0 of 5 (dose: 6.25 mg/kg/injection, schedule: Q01DX005 (ip), vehicle: saline); 0 of 5 (dose: 12.5 mg/kg/injection, schedule: Q01DX005 (ip), vehicle: saline); 0 of 5 (dose: 25.0 mg/kg/injection, schedule: Q01DX005 (ip), vehicle: saline); 0 of 5 (dose: 50.0 mg/kg/injection, schedule: Q01DX005 (ip), vehicle: saline); 0 of 5 (dose: 100.0 mg/kg/injection, schedule: Q01DX005 (ip), vehicle: saline); 0 of 5 under setting [2].
Take `c1ccc2c(c1)Cc1ccccc1N2CCN1CCCCC1`: under setting [2], the survivor count is given as 2 of 5.
Take `OP12(OC(C(F)(F)F)(C(F)(F)F)c3ccccc31)OC(C(F)(F)F)(C(F)(F)F)c1ccccc12`: the survivor count under setting [3] is recorded as 4 of 6.
For the molecule `CC(C)(C)OOCC1CO1` (centres undefined), the T/C was 140 % of control (dose: 100.0 mg/kg/injection, schedule: Q01DX009 (ip), vehicle: saline with Tween-80) and 127 % of control under setting [4]. Further, the survivor count under setting [5] is recorded as 2 of 6.
In the case of `CCOC(=O)c1ccccc1OP(=O)(N(C)C)N(C)C`, the survivor count under setting [5] was 0 of 6 and 1 of 6.
On to `Nc1nccc2[nH]ccc12`, for which the survivor count is listed as 3 of 6 (dose: 100.0 mg/kg/injection, schedule: Q01DX001 (ip), vehicle: saline with Tween-80); 0 of 6 (dose: 200.0 mg/kg/injection, schedule: Q01DX001 (ip), vehicle: saline with Tween-80); 0 of 6 (dose: 400.0 mg/kg/injection, schedule: Q01DX001 (ip), vehicle: saline with Tween-80).
Regarding `O=C1CC2(C(=O)N1CN1CCCCC1)c1ccccc1-c1ccccc12`, the T/C under setting [6] is 126 % of control.
As for `CCOC(=O)C1(Br)CCCCC1Br` (centres undefined), under “dose: 50.0 mg/kg/injection, schedule: Q01DX009 (ip), vehicle: saline with Tween-80”, the T/C was 125 % of control. For the same molecule, the survivor count under setting [4] is given as 6 of 6.
Regarding `COc1ccc2nc3ccccc3c(NCCNCCO)c2c1`, where the note is “dose: 5.0 mg/kg/injection, schedule: Q01DX009 (ip), vehicle: saline”, the T/C is 131 % of control. The survivor count reads like this: (dose: 10.0 mg/kg/injection, schedule: Q01DX009 (ip), vehicle: saline) 4 of 6; (dose: 20.0 mg/kg/injection, schedule: Q01DX009 (ip), vehicle: saline) 5 of 6.
For the molecule `O=[N+]([O-])c1ccc(S(=O)C2CCCCC2Cl)c([N+](=O)[O-])c1` (centres undefined), under setting [3], the survivor count is recorded as 1 of 6.
On to `COC1=C(OC)C(=O)C(SCCCCCCC2CCCCC2)=C(Cl)C1=O`, for which the survivor count (dose: 3.13 mg/kg/injection, schedule: Q01DX009 (ip), vehicle: Klucel (hydroxypropylcellulose) (HPC)) is reported as 5 of 6; the survivor count under setting [7] is on record as 5 of 6; the survivor count (dose: 12.5 mg/kg/injection, schedule: Q01DX009 (ip), vehicle: Klucel (hydroxypropylcellulose) (HPC)) is 3 of 6; the survivor count under setting [8] is 3 of 6; the survivor count under setting [9] was 0 of 6.
For `C1CCC2[N-]CC3CCCCC3[N-]CC3CCCCC3[N-]CC3CCCCC3[N-]CC2C1.[Ni+2].[O-][Cl+3]([O-])([O-])O` (centres undefined), the survivor count is on record as 0 of 6 (dose: 12.5 mg/kg/injection, schedule: Q01DX009 (ip), vehicle: saline); 0 of 6 (dose: 25.0 mg/kg/injection, schedule: Q01DX009 (ip), vehicle: saline); 0 of 6 under setting [10].
On to `C[C@@H](O)[C@H](NSc1ccccc1[N+](=O)[O-])C(=O)NCCc1nc(-c2nc(C(=O)NCCCBr)cs2)cs1`, for which the survivor count (dose: 50.0 mg/kg/injection, schedule: Q01DX005 (ip), vehicle: saline with Tween-80) is reported as 5 of 5.
For the molecule `CCCc1c(-c2ccccc2)nc(N)nc1-c1nc(N)nc(-c2ccccc2)c1CCC`, the survivor count under setting [11] was 2 of 6.
For `CC(C)=NOCc1ccccc1`, the survivor count under setting [8] is 6 of 6.
Take `Nc1nnc(Cc2ccccc2)n1N`: the survivor count under setting [11] was 0 of 6.
As to `O=C(CC(=O)N1CCN(c2ccccn2)CC1)N1CCN(c2ccccn2)CC1`, under setting [12], the survivor count is 0 of 6.
With `COC(=O)c1c(O)c2c(c3c1OC(C)(C)CC3)OC(C)(C)CC2`, the survivor count under setting [1] was 6 of 6.
As for `Cc1cccc(NC(=O)N(CCCl)N=O)c1`, the T/C (dose: 0.75 mg/kg/injection, schedule: Q01DX009 (ip), vehicle: saline) was 148 % of control. Moreover, the survivor count is 6 of 6 (dose: 12.5 mg/kg/injection, schedule: Q01DX009 (ip), vehicle: saline with Tween-80); 6 of 6 (dose: 18.75 mg/kg/injection, schedule: Q04DX003 (ip), vehicle: saline with Tween-80); 6 of 6 (dose: 25.0 mg/kg/injection, schedule: Q04DX003 (ip), vehicle: saline with Tween-80).
Regarding `Cc1cccc(Cl)c1NC1=NCCN1C(=O)CC(=O)c1ccccc1`, the survivor count under setting [7] is reported as 3 of 6; the survivor count under setting [8] is recorded as 4 of 6; the survivor count under setting [9] was 2 of 6; the survivor count (dose: 100.0 mg/kg/injection, schedule: Q01DX009 (ip), vehicle: Klucel (hydroxypropylcellulose) (HPC)) is reported as 2 of 6; the survivor count under setting [6] is 1 of 6.
`OC/C(Cl)=C(\Cl)CO`: the survivor count runs as follows: under setting [10], 6 of 6; (dose: 100.0 mg/kg/injection, schedule: Q01DX009 (ip), vehicle: saline) 2 of 6; under setting [12], 0 of 6.
In the case of `CN1C(=O)Cc2[nH]ccc2C1=O`, the survivor count is 0 of 6 (dose: 100.0 mg/kg/injection, schedule: Q04DX003 (ip), vehicle: saline with Tween-80); 0 of 6 (dose: 200.0 mg/kg/injection, schedule: Q04DX003 (ip), vehicle: saline with Tween-80); 0 of 6 (dose: 400.0 mg/kg/injection, schedule: Q04DX003 (ip), vehicle: saline with Tween-80).
On to `Cn1c(=O)ccc2ccccc21`, for which, under setting [13], the T/C is 138 % of control [5 of 6 alive] and the survivor count is given as 4 of 6. The survivor count (dose: 400.0 mg/kg/injection, schedule: Q04DX003 (ip), vehicle: saline) was 0 of 6 and 1 of 6.
As for `CCO[C@H]1c2cc3c(cc2[C@@H](c2cc(OC)c(OC)c(OC)c2)[C@H]2C(=O)OC[C@@H]21)OCO3`, the survivor count (dose: 200.0 mg/kg/injection, schedule: Q01DX005 (ip), vehicle: Klucel (hydroxypropylcellulose) (HPC)) is 4 of 6.

These data come from PubChem BioAssay AID330 (DTP/NCI, 2004).
